Reference: article PMC4652203
No constants are given. Whether binding was seen depends on the method and setting. In cells and extracts the contact can be indirect. Some binding calls cover weakened binding; strength is not graded here.

Protein sequences, listed by entry. Tags and fused reporters are not part of them. Residues count along the entry.
UniProt Q6UX06, residues 21-510: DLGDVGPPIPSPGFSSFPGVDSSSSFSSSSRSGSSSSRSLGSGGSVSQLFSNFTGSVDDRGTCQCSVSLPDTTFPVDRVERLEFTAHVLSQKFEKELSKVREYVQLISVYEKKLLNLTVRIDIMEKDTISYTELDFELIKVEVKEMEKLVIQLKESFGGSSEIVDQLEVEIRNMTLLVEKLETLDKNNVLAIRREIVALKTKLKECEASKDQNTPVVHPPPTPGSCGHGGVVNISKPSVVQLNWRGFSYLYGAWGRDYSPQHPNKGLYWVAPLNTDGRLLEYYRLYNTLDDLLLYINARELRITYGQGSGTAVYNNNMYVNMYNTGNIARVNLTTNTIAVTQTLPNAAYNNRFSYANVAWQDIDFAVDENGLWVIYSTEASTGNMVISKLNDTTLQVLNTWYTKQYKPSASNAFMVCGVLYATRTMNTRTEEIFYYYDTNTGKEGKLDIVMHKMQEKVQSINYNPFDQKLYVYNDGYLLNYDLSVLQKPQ
UniProt Q15465, residues 24-462: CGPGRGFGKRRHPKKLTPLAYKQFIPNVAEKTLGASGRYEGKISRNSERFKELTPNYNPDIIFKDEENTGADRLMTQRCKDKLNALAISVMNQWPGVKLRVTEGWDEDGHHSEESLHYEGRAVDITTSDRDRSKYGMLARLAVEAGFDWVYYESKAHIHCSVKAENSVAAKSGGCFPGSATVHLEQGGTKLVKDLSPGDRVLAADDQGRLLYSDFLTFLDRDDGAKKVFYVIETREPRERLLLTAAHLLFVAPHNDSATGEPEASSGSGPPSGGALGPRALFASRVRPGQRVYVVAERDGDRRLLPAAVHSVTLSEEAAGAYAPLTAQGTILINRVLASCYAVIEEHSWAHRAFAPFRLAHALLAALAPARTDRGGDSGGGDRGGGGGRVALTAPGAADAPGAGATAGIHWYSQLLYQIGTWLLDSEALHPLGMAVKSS

Biological target: OLFM4-V5 tag (full-length olfactomedin 4) (human) (UniProt Q6UX06)
Experiment: co-IP; lysates of stable PC-3 clones (500 ug in 0.5 mL) with 2 ug anti-V5 or anti-Flag (or normal IgG) for 3 h at 4 °C, then Protein G-Sepharose overnight at 4 °C; washed 3 times in lysis buffer; blot with anti-SHH

- binding: binds
Substance: sonic hedgehog (SHH) protein (from UniProt Q15465 24-462)
